According to patent US20170290925A1 (priority 2014, published 2017):

Assay: general procedure: solution-phase peptide synthesis; HATU/NMM
Settings: conjugation step

bis-tolylsulfonyl-propanoyl-benzamide-Glu-[NH-PEG(24u)-OMe]-[val-cit-PAB-MMAE]
conjugation yield: 56%
